Measurements from patent US9102899B2, “Organic compounds” (Givaudan SA, priority 2004, dated 2015).

Assay: Odour description

CCC(C)=C(C#N)c1ccccc1 (racemic) [Example 3, 3-Methyl-2-phenyl-pent-2-ene nitrile]
Odour description: sweet, floral, green honey, salicylate, orange blossom

CC(C)=C/C=C(/C#N)c1ccccc1 [Example 6, (2E)-5-Methyl-2-phenyl-hexa-2,4-diene nitrile]
Odour description: powdery, cinnamone, benzaldehyde

CCC(CC)=C(C#N)c1ccccc1 [Example 9, 3-ethyl-2-phenyl-pent-2-ene nitrile]
Odour description: green, floral, rosy

CC(C)=C(C#N)c1ccccc1 [Example 1, 3-Methyl-2-phenyl-but-2-ene nitrile]
Odour description: floral, Rosacetol, fresh, citrus, dry hay, tobacco

COc1ccc(C(C#N)=C(C)C)cc1 [Example 8, 2-(4-methoxy-phenyl)-3-methyl-but-2-ene nitrile]
Odour description: floral, anis, sweet

CCCCCC=C(C#N)c1ccccc1 (stereo in doubt) [Example 2, (2E)-2-Phenyl-oct-2-ene nitrile]
Odour description: fresh, green, jasmine, salicylate

CC(C)=CCCC(C)=C(C#N)c1ccccc1 [Example 5, 3,7-Dimethyl-2-phenyl-octa-2,6-diene nitrile]
Odour description: floral, honey, cinnamon, sweet

CC(C)=C(C#N)c1ccc(C)cc1 [Example 4, 3-Methyl-2-p-tolyl-but-2-ene nitrile]
Odour description: citrus, rosy, fruity, minty

COc1ccccc1C(C#N)=C(C)C [Example 7, 2-(2-Methoxy-phenyl)-3-methyl-but-2-ene nitrile]
Odour description: citrus, hyacinthe, coumarin
